Measurements reported in PubChem BioAssay AID743121 (NCATS, 2013)

Screen: 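Knock-downs that sensitise breast cancer cells to camptothecin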 (primary screen)
Cell system: MDA-MB-231 cells, a human breast cancer line
Knock-down reagent: single siRNA against human genes, 20 nM siRNA (0.8 pmol per well)
Time to read-out: 120 h (drug added 48 h after transfection, read 72 h later)
Treatment: camptothecin 20 nM (about EC30) for 72 h; vehicle 0.1% DMSO in parallel plates
Detection: 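Cell viability by ATP luminescence (CellTiter-Glo) as % of non-targeting siRNA wells, and the log2 ratio of viability without drug over viability with camptothecin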
Direction: log2 vehicle/camptothecin viability: higher = stronger sensitisation to camptothecin; viability with camptothecin: higher = more viable cells
Hit rule: 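Each gene scored by redundant siRNA activity (RSA) over its individual siRNA ratios; a gene is called active at p < 0.001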
Shown is one part, drawn at random, of about 26,000 deposited reagents. Over the whole deposit, 167 (0.63%) got an active call. 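Calls are per gene from RSA p-values that are not deposited; an individual active-marked siRNA can sensitise only weakly.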 The numbers tell different reagents against one gene apart. Not all columns of the deposit are shown.

Gene | siRNA no. | log2 vehicle/camptothecin viability | viability with camptothecin (% of control) | call
DNAJC6 | 1 | -0.212 | 55.2 | inactive
DNAJC6 | 2 | 0.107 | 54.7 | inactive
DNAJC6 | 3 | 0.082 | 35.8 | inactive
DNAJC6 | 4 | 0.00424 | 110 | inactive
LAMTOR3 | 1 | -0.411 | 79.7 | inactive
LAMTOR3 | 2 | -0.454 | 32.5 | inactive
LAMTOR3 | 3 | -0.19 | 94.1 | inactive
LAMTOR3 | 4 | -0.204 | 52.8 | inactive
IFNA14 | 1 | -0.0406 | 49.6 | inactive
IFNA14 | 2 | -0.309 | 95.2 | inactive
IFNA14 | 3 | -0.276 | 66.5 | inactive
SSC4D | 1 | 0.398 | 23 | inactive
SSC4D | 2 | 0.0212 | 50.7 | inactive
SSC4D | 3 | -0.102 | 98.3 | inactive
SSH1 | 1 | -0.109 | 100 | inactive
SSH1 | 2 | -0.46 | 97.1 | inactive
SSH1 | 3 | 0.252 | 30.3 | inactive
SSH1 | 4 | 0.195 | 77.9 | inactive
USP45 | 1 | 0.0161 | 89.5 | inactive
USP45 | 2 | -0.00783 | 99.6 | inactive
USP45 | 3 | -0.314 | 69.2 | inactive
USP45 | 4 | -0.0878 | 66.1 | inactive
USP45 | 5 | 0.238 | 56.2 | inactive
USP45 | 6 | -0.907 | 20 | inactive
ALDH5A1 | 1 | -0.172 | 115 | inactive
ALDH5A1 | 2 | 0.0293 | 70 | inactive
ALDH5A1 | 3 | -0.018 | 25.8 | inactive
ALDH5A1 | 4 | 0.112 | 88.8 | inactive
GPR142 | 1 | 0.0786 | 56.5 | inactive
GPR142 | 2 | -0.23 | 71 | inactive
GPR142 | 3 | -0.449 | 38 | inactive
GPR142 | 4 | -0.717 | 62.3 | inactive
IL33R | 1 | 0.179 | 73.3 | inactive
IL33R | 2 | -0.219 | 79.9 | inactive
IL33R | 3 | -0.457 | 86.1 | inactive
IL33R | 4 | 0.015 | 56.1 | inactive
FUCA1 | 1 | -0.141 | 39.7 | inactive
FUCA1 | 2 | -0.291 | 51.1 | inactive
FUCA1 | 3 | 0.0422 | 76.3 | inactive
FUCA1 | 4 | -0.12 | 48.4 | inactive
ILKAP | 1 | -0.0586 | 107 | inactive
ILKAP | 2 | 0.251 | 41 | inactive
ILKAP | 3 | -0.181 | 85.6 | inactive
ILKAP | 4 | -0.396 | 82.7 | inactive
OTC | 1 | -0.496 | 62.7 | inactive
OTC | 2 | -0.456 | 82.4 | inactive
OTC | 3 | -0.00941 | 84.7 | inactive
IPO4 | 1 | 0.215 | 71.1 | inactive
IPO4 | 2 | -0.926 | 59.3 | inactive
IPO4 | 3 | -0.161 | 55.6 | inactive
IPO4 | 4 | 0.211 | 52 | inactive
PKIB | 1 | -0.346 | 68 | inactive
PKIB | 2 | -0.184 | 102 | inactive
PKIB | 3 | -0.172 | 54 | inactive
PKIB | 4 | 0.203 | 15.9 | inactive
MBL2 | 1 | -0.225 | 117 | inactive
MBL2 | 2 | -0.186 | 57.6 | inactive
MBL2 | 3 | 0.284 | 61.4 | inactive
PRMT7 | 1 | -0.0444 | 49.5 | inactive
PRMT7 | 2 | -0.287 | 87.6 | inactive
PRMT7 | 3 | -0.275 | 85.5 | inactive
PRMT7 | 4 | -0.214 | 68.7 | inactive
CALM2 | 1 | -0.128 | 86 | inactive
CALM2 | 2 | -0.183 | 80.8 | inactive
CALM2 | 3 | -0.551 | 83.9 | inactive
CALM2 | 4 | 0.917 | 32.5 | inactive
MAN2B2 | 1 | -0.237 | 91.4 | inactive
MAN2B2 | 2 | 0.0105 | 101 | inactive
MAN2B2 | 3 | -0.883 | 79 | inactive
MAN2B2 | 4 | -0.277 | 57.1 | inactive

Only “log2 vehicle/camptothecin viability” (10 entries from above):
LAMTOR3 #3: -0.19
LAMTOR3 #4: -0.204
IFNA14 #1: -0.0406
IFNA14 #2: -0.309
IFNA14 #3: -0.276
SSC4D #1: 0.398
SSC4D #2: 0.0212
SSC4D #3: -0.102
SSH1 #1: -0.109
SSH1 #2: -0.46
